This note sets out measurements from publication PMC4657934.

Amino acid sequences for entries named in this document (tags omitted). A change or cut given only in a name is not applied to a line headed by its entry.
UniProt Q9ULZ3: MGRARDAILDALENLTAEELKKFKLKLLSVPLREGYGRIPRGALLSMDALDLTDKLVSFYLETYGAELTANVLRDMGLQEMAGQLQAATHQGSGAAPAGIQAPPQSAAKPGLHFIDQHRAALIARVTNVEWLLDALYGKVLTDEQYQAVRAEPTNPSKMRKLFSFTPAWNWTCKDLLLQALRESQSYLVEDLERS
UniProt P29466: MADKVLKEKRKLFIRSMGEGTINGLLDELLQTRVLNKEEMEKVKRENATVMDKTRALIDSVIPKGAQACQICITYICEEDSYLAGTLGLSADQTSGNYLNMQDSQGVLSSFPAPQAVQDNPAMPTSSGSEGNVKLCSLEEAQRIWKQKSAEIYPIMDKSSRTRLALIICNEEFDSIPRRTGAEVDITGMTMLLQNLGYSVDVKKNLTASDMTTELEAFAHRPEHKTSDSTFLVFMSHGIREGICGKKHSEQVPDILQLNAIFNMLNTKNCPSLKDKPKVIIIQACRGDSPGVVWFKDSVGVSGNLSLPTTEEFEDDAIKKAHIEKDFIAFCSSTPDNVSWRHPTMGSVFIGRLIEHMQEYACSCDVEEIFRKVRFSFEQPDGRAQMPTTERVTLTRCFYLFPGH

In the assay the target is apoptosis-associated speck-like complex containing a CARD (ASC), released from LPS/ATP treated THP1 cells (human (endogenous in THP1)) (UniProt Q9ULZ3). Description: co-IP; clarified supernatants of LPS/ATP treated THP1 cells (2x10^7 cells/ml); anti-ASC mouse monoclonal (MBL, 1:62.5) or control mouse IgG1, 2h at 4°C, protein A/G beads, washed in cold PBS; caspase-1 probed on immunoblot with YK antibody.

No constants are given. Whether binding was seen depends on the method and setting. In cells and extracts the contact can be indirect.

“mature caspase-1 (p20/p10), released from LPS/ATP treated THP1 cells (from UniProt P29466 120-297; P29466 317-404) (complex)”: the binding result was “no binding”.
